# Data: PubChem BioAssay AID1347423 (Functional Genomics Laboratory (NCATS/FGL), 2020)
# Among all 52,000 sequences or so, about 210 (0.4%) were called active.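 Rule for the calls: active = gene whose silencing raises cell survival under the drug, median off-target-corrected z-score across its silencing RNAs 2 or more; inactive = the rest.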 Some of the results follow.
# Assay: Resistance to Poly (ADP-Ribose) Polymerase inhibitor: Gene Identification via Genome-wide siRNA Screen
# Details: mouse BRCA2 R2336H ES cells, olaparib, CellTiter-Glo viability; hits give high values
# In short: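 Mouse BRCA2 R2336H ES cells were reverse-transfected with siRNA (20 nM final), treated at 48 h with 500 nM olaparib, and read by CellTiter-Glo after 72 h. Scores: MAD-based z per siRNA, median per gene, seed off-target correction.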
row,Sequence,z-score
1,GGUCAGAAGGUGUGUUAUATT against Rad52,inactive: 2.76
2,GGCAUUUGAAGAUGUUUCUTT against Hmgb3,active: 1.56
3,GGUAGAAUUACUGUGUACUTT against Slc26a4,inactive: -0.482
4,GGACAAGUCGAGUUUCAAGTT against Zfp503,inactive: 1.1
5,CCAAUGAAACAUUUACUUCTT against Stmn4,inactive: 0.62
6,GGAAACCAGAAAAACUGAATT against Parg,inactive: 0.204
7,GGCUGAGGAGUGGUACUUUTT against Src,inactive: -1.18
8,GGUUAAGUUCCUCUGGAACTT against Pnliprp2,inactive: -1.59
9,GGUACUUCAUCGAUUCAGCTT against 3110024A21Rik,inactive: 0.263
10,GCAUUGAGCUCGACUUCUGTT against Cpa3,inactive: -0.0264
11,GCCAGGUGUGGUGACUCAUTT against 1810034M08Rik,inactive: -0.481
12,GCUUGUCAUUCUUGUUGUATT against Olfr348,inactive: 1.17
13,GGAAUGGAAAAACAAAAAGTT against Matp,inactive: 0.0244
14,CCUGUAAAGUUCUUGUCGGTT against Ccrl2,inactive: 0.716
15,GGUGACCAAAAAAGCUUUATT against Pax9,inactive: -0.0814
16,CCUGAACAUGAGUUAAAAGTT against Lmo4,inactive: 1.56
17,GGUGUACGAUCUGACCAAGTT against Cyb5,inactive: -0.141
18,GGCACCUUUCAGAAAUCCCTT against 4931406B18Rik,inactive: 0.474
19,GGCUACUUUUUGGAACAUCTT against Uqcrc1,inactive: -1.18
20,GGCUGUUCGAGCUAUCCACTT against Ddefl1,inactive: -0.809
21,GCUGGAUAUUUCUAAGUAUTT against 4930430A15Rik,inactive: 0.962
22,GGCAUCCAAUCCUGUGGAGTT against Bcl11a,inactive: -0.311
23,GGACUUCGAAAGUUUAUCCTT against AI449705,inactive: 1.93
24,CCUUGUAUGGAGAUAUUCCTT against 4632417K02,inactive: -1.8
25,GCUUGUCGAGAAACUCUGGTT against A330021E22Rik,inactive: 0.659
26,GGAGUUUGACUCAAUAUCATT against Napb,inactive: 0.653

# Reformatted: entries from further up
row | Sequence | z-score
14 | CCUGUAAAGUUCUUGUCGGTT against Ccrl2 | inactive: 0.716
15 | GGUGACCAAAAAAGCUUUATT against Pax9 | inactive: -0.0814
16 | CCUGAACAUGAGUUAAAAGTT against Lmo4 | inactive: 1.56
17 | GGUGUACGAUCUGACCAAGTT against Cyb5 | inactive: -0.141

# Later entries:

row,Sequence,z-score
1,CCGUUUAACUUGGGCUGAUTT against Reg1,inactive: 0.779
2,GGCAUUCCCUGAAUAUCGUTT against Gpx2,inactive: 0.731
3,GGUACAGGAAACUCAAAUATT against Lrrc4,inactive: 0.527
4,GGUUGAAUUAUACACAAAGTT against 4930425N13Rik,inactive: -0.749
5,GCCACCUUGUUUCUCGAACTT against 1810008A18Rik,inactive: 0.925
6,GGCAGUCAGACUUAGAGACTT against Dqx1,inactive: -0.303
7,GGUUUUUGUCACUAUAAGCTT against 4921513B05Rik,inactive: 2.66
8,CCAAAGCCUGAAAUGGUGGTT against Cxcr4,inactive: 0.733
9,GGUAUAGAAUGUUUGAUCATT against AA792894,inactive: 0.00502
10,GCGUGCAGCCCUCAAUGAATT against Ppp2r5b,active: 1.44
11,GGGACUCGGGCAGUAUUCATT against Tgm5,inactive: 3.09
12,GGCAAAGACAAGAAGCUGUTT against Drap1,inactive: 1.55
13,GGAGACUGAGGAAGAAUCUTT against Atcay,inactive: 0.00927
14,CCUUUCGGACAAAAUAUGUTT against Vnn3,inactive: 0.459
15,GCAGUGCACGGAUAACUUCTT against 9430093N24Rik,inactive: 2.3
16,GAUGGACAGGUUCAUGAUUTT against BC058638,inactive: -1.43
17,GGCCUAUGAAAAGUGGCGUTT against Dpysl3,inactive: 0.378
18,GGGAGAGUCUUGGCAACUUTT against 1500005I02Rik,inactive: -1.79
19,GGAAGUUCAAGACAUUGUUTT against Rabgef1,inactive: 0.527
20,GGGCAUCAGCAUUUGGUCATT against Pparbp,inactive: 1.17
21,GGAACUGAAGCUCCUACAATT against 6530418L21Rik,inactive: -2.7
22,GGCUGGAAAGAGACUUUCCTT against Sah,inactive: -0.611
23,GGUAUUCUUUGAUAAGAUCTT against Ephb1,inactive: 0.73
24,GGUUAUUGAUUUGGUGAAGTT against 4930550L24Rik,inactive: -0.903
25,GGUUCUUUUUGACGGUGGUTT against Rpl14,inactive: -3.22
26,GGAUCAGCAACAGUCUCCATT against 1700029M20Rik,inactive: -0.0631

row,Sequence,z-score
1,GCUACUCUCGCCUGUUACATT against Wdr40a,inactive: 0.351
2,CCCACAGGUUCAAGAACCGTT against Gm608,inactive: 0.0445
3,CCUCUGCUACUCUUAUUGUTT against Ttn,inactive: -0.38
4,GGAGUGAUGUCCAUACUGGTT against Leap2,inactive: -0.44
5,GGCUAAAGCGAAAAAAAAGTT against Msl31,inactive: -0.347
6,GGAGUUUGUGCAGUUUGUGTT against Nfix,inactive: -0.275
7,GGGAGAGGAUCAGGUAAACTT against 1500003O03Rik,inactive: -0.0913
8,CCCUCCGUGUUUUUAAGAUTT against Tbl2,inactive: -0.15
9,GGGCUUCUGAAGAAGAUGATT against Cdc25b,inactive: -1.24
10,GGUGAUGUGCUCCGGUUUATT against Mrs2l,inactive: -0.00496
11,GGCAAUUAAUUGACAGUUATT against Myf5,inactive: 0.188
12,GCAAGGAGUUUAUGUGAGUTT against Olfr170,inactive: -0.306
13,GGAACAAAGAGGUUAAAGGTT against Olfr1448,inactive: 0.0539
14,GCCCAUCACAAAUAAACAATT against B230340J04Rik,inactive: 1.26
15,CCACCACAACUAAGUCAGATT against 2310015N07Rik,inactive: 1.08
16,CCCUGUGAAAUAUUGAUAATT against V1rc15,inactive: -1.26
17,GGCACUGAAGGAGAACCUGTT against 4732416F18,inactive: -0.837
18,GGAAGUUCGUGUGAAAGUUTT against Uhrf2,inactive: -1.45
19,GGUGGAGUUUGUGCAGAAGTT against 2310026J01Rik,inactive: 0.572
20,GGUGCAGAACUAAUUCCACTT against 9130020L07Rik,inactive: -0.454
21,GGGAGAGGACGACAUUUACTT against Otx2,inactive: -0.207
22,GGUUUUUAUCGACACUAUCTT against Chrna1,inactive: 0.315
23,GGUGGUUCCCAAUUCACCUTT against Htra3,inactive: 0.125
24,CCCUUUGUAGUUACUAAACTT against Zwint,inactive: 0.291
25,GGUCUGAAGACAUCCUAGUTT against Pabpc4,inactive: -0.217
26,CGGGAUUCUUCUCCUUGAATT against Dnalc4,inactive: -1.28

row,Sequence,z-score
1,GCAAGCUGAGCAUUGAUGATT against Csk,inactive: 0.841
2,GGAGUACGUGCUAGAUAAGTT against Tram1l1,inactive: -1.49
3,CCGUACAUCGAGAAAUACATT against Hal,inactive: -0.297
4,GCAGUUUUCGCUCUGGUCATT against Cxcl7,inactive: -2.36
5,GCGGAUUUAGUGGCUGGCUTT against Opn5,inactive: -2.04
6,GCAUCACUGUCUAAACUUGTT against Pgk2,inactive: 0.482
7,GCAUAUUAGACACAAGAUATT against Clecsf6,inactive: 0.176
8,GGAGCCAAGAACUUUUCAGTT against AI467484,inactive: -0.188
9,GUUGACUGUACCCGAUACATT against Mxd3,inactive: -0.163
10,GGUAAUCACAUCCCAGGUGTT against Olfr370,inactive: -0.92
11,GUGAUUGCCAAGAAGUUCUTT against Olfr1033,inactive: -0.0496
12,GGAAAAGAGCAAACUUAUUTT against Shc3,inactive: 0.757
13,GCUCUACGAUGCAGUUUUUTT against Trp53i11,inactive: 0.795
14,GCAUCUAUGGUGUUUCCUGTT against 9230106D20Rik,inactive: 0.792
15,CGGACACACAGUUGAUCCGTT against Cct6b,inactive: -0.174
16,GGAUAUCAUCAUGUCUUUCTT against Otop1,inactive: 0.578
17,GGUGGCCCAGUCUAAAGAATT against R74862,inactive: -0.481
18,GGAAUUCAGUGCCUUAAAATT against Pgf,inactive: -0.415
19,GGAGUUCGCACAGAAAUUCTT against Dhdh,inactive: 2.35
20,GGACAGGUGAAGAUAAGUATT against Mug2,inactive: -0.264
21,GAGAUGCCAUGACAAUGGGTT against 4931422A03Rik,inactive: -1.98
22,GGAGUCUCUGUCAUGUGAUTT against Tlr2,inactive: -1.27
23,GGUUGUGAACAGUCCACCCTT against Ski,inactive: 0.143
24,GGAAGGACUAUUUUCUUUCTT against 2310001H13Rik,inactive: 0.265
25,GGCUUUAUCAGAUCCAACCTT against B130017P16Rik,inactive: 3.06
26,CCAAAUAAUUUCAGGGAAUTT against Vamp1,inactive: 0.148
